Measured values: article PMC5562444

The chains behind the UniProt entries cited, without tags or fusion partners.
UniProt Q9BQ69: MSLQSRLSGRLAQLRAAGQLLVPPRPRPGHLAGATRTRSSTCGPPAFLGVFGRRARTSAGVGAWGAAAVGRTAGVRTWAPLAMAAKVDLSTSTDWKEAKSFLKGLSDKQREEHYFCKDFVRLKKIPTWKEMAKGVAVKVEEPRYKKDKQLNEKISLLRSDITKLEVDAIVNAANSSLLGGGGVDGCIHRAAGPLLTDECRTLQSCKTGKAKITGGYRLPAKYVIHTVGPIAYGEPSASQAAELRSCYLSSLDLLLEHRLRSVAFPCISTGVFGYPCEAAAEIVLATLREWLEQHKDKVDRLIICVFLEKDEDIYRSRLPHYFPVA
UniProt P19525: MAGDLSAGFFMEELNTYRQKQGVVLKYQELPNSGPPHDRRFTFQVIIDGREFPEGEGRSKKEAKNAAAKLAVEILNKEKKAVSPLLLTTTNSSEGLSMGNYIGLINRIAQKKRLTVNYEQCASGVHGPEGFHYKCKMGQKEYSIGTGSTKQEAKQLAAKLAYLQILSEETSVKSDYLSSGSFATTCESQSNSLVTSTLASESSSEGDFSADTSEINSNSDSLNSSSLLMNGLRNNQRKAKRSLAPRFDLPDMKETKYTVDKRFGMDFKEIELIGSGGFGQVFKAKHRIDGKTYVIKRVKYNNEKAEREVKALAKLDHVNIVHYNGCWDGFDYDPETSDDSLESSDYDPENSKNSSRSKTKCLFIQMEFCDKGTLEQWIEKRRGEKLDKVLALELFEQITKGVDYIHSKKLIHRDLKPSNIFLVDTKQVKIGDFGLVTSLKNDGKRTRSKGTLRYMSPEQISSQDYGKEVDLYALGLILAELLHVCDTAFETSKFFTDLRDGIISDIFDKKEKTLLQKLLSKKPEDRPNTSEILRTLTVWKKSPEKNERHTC

Key:
[1] = biological target: Leukemia-Related Protein 16 (LRP16), endogenous (human (endogenous in SW480, SW620, HCT116)) (UniProt Q9BQ69); assay: affinity purification with mass spectrometry; total lysate of SW620 cells, affinity purification with an anti-LRP16 antibody, SDS-PAGE, silver stain, bands excised, LC–MS/MS
[2] = biological target: Leukemia-Related Protein 16 (LRP16), endogenous (human (endogenous in SW480, SW620, HCT116)) (UniProt Q9BQ69); assay: as above; remark: listed apart in the source

| binding [1] | binding [2] | Molecule |
| --- | --- | --- |
| binds | – | double-stranded RNA-dependent protein kinase PKR, endogenous (from UniProt P19525 1-551) |
| – | binds | IKKβ, endogenous (protein, UniProt O14920 1-756) MSWSPSLTTQTCGAWEMKERLGTGGFGNVIRWHNQETGEQIAIKQCRQELSPRNRERWCLEIQIMRRLTHPNVVAARDVPEGMQNLAPNDLPLLAMEYCQGGDLRKYLNQFENCCGLREGAILTLLSDIASALRYLHENRIIHRDLKPENIVLQQGEQRLIHKIIDLGYAKELDQGSLCTSFVGTLQYLAPELLEQQKYTVTVDYWSFGTLAFECITGFRPFLPNWQPVQWHSKVRQKSEVDIVVSEDLNGTVKFSSSLPYPNNLNSVLAERLEKWLQLMLMWHPRQRGTDPTYGPNGCFKALDDILNLKLVHILNMVTGTIHTYPVTEDESLQSLKARIQQDTGIPEEDQELLQEAGLALIPDKPATQCISDGKLNEGHTLDMDLVFLFDNSKITYETQISPRPQPESVSCILQEPKRNLAFFQLRKVWGQVWHSIQTLKEDCNRLQQGQRAAMMNLLRNNSCLSKMKNSMASMSQQLKAKLDFFKTSIQIDLEKYSEQTEFGITSDKLLLAWREMEQAVELCGRENEVKLLVERMMALQTDIVDLQRSPMGRKQGGTLDDLEEQARELYRRLREKPRDQRTEGDSQEMVRLLLQAIQSFEKKVRVIYTQLSKTVVCKQKALELLPKVEEVVSLMNEDEKTVVRLQEKRQKELWNLLKIACSKVRGPVSGSPDSMNASRLSQPGQLMSQPSTASNSLPEPAKKSEELVAEAHNLCTLLENAIQDTVREQDQSFTALDWSWLQTEEEEHSCLEQAS |

Where two headings read alike, the source gives them in different places. These are yes or no findings as the source states them, for the method shown. Binding seen in cells or lysates may run through a third protein. Here binding means that the protein was enriched with, or labelled near, the bait; the list need not be complete.
